The list shows a part of the results.
How the values were obtained:
Assay in all cases: log2 fold change, soluble protein after heating vs DMSO (PISA); higher = thermal stabilisation; K562 cells, 10 uM, 30 min; active = over 0.2 and 3.5 SD of the protein, either way, in both replicates (recomputed)
[1] = compound: COC1=CC=C(C=C1)CN2C=CC3=C2C=C(C=C3)C(=O)NO
In short: (§1)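 K562 cells at 2×10^6 cells/mL were treated with 10 μM compound for 30 min. Aliquots were heated for 3 min across 48°C-58°C, pooled, and extracted in PBS with 0.5% NP-40 at 4°C; soluble protein was the supernatant after 21,000xg for 90 min. Soluble protein was quantified by TMTpro 16plex LC-MS/MS with channel sums equalised, and reported as log2 fold change in thermal stability against DMSO controls, with values from duplicates.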

By UniProt entry, the sequences of proteins in these tests, tags left out. Where a name states a change or a piece, a line headed by the entry shows the natural chain unless it says otherwise.
UniProt Q8WXF1: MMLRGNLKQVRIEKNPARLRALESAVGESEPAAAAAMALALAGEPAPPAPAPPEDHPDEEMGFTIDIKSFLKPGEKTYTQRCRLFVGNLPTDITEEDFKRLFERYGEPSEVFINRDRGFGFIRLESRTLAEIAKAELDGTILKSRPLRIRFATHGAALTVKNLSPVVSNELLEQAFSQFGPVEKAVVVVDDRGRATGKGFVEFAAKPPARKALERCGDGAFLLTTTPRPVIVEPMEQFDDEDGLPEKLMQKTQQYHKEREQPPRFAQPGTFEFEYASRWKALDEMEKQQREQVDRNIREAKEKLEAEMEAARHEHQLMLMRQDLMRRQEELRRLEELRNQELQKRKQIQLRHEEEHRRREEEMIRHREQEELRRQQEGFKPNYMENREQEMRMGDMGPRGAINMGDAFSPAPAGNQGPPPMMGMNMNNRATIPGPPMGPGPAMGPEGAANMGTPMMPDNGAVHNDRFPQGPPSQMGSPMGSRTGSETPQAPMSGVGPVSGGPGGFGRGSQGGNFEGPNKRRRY
UniProt Q14997: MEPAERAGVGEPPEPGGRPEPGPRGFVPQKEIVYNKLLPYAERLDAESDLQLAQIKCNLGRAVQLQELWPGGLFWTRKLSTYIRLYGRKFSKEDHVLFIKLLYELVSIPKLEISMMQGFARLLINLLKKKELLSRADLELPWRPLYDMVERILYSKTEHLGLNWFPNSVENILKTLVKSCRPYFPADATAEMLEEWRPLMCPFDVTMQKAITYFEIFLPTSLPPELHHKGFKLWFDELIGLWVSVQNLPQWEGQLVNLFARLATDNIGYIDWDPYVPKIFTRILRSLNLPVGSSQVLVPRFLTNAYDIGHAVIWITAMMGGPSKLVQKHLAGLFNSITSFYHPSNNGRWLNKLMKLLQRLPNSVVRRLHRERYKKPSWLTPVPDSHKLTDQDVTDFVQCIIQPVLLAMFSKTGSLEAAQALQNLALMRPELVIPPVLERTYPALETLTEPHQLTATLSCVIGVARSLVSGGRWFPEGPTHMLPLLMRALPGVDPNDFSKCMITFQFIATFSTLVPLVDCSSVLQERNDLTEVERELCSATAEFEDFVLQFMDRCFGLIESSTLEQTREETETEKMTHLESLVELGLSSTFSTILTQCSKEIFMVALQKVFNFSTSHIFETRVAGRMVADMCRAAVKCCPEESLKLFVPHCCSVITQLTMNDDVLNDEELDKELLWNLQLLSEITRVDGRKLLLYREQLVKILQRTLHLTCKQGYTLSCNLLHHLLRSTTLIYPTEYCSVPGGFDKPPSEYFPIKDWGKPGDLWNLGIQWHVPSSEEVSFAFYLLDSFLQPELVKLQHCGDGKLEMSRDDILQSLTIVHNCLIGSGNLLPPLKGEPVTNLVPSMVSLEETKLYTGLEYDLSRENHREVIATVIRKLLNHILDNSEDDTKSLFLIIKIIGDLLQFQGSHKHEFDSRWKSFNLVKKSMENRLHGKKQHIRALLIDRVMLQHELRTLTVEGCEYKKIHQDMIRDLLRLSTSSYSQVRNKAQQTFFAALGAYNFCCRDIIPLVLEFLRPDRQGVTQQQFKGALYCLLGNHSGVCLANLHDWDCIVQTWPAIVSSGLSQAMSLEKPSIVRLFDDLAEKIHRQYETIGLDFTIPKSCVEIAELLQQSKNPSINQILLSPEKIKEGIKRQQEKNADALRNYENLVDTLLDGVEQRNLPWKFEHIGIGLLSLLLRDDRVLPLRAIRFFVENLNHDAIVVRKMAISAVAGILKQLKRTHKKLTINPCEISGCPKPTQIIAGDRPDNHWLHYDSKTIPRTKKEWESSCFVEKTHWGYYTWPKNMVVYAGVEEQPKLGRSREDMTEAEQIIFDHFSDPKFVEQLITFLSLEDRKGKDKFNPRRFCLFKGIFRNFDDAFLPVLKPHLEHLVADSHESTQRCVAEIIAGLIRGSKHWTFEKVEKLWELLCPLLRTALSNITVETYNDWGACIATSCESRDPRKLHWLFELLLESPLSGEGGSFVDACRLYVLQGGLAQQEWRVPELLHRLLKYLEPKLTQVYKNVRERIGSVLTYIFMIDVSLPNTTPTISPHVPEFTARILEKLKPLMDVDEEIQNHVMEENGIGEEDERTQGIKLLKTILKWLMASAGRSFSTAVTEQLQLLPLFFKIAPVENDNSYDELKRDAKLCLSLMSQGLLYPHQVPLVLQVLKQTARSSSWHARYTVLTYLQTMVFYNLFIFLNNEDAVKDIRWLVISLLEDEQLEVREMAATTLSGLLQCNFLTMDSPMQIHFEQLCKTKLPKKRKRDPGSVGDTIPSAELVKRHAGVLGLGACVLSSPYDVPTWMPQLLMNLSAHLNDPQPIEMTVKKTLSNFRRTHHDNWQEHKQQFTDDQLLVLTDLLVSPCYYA
UniProt Q2TAL8: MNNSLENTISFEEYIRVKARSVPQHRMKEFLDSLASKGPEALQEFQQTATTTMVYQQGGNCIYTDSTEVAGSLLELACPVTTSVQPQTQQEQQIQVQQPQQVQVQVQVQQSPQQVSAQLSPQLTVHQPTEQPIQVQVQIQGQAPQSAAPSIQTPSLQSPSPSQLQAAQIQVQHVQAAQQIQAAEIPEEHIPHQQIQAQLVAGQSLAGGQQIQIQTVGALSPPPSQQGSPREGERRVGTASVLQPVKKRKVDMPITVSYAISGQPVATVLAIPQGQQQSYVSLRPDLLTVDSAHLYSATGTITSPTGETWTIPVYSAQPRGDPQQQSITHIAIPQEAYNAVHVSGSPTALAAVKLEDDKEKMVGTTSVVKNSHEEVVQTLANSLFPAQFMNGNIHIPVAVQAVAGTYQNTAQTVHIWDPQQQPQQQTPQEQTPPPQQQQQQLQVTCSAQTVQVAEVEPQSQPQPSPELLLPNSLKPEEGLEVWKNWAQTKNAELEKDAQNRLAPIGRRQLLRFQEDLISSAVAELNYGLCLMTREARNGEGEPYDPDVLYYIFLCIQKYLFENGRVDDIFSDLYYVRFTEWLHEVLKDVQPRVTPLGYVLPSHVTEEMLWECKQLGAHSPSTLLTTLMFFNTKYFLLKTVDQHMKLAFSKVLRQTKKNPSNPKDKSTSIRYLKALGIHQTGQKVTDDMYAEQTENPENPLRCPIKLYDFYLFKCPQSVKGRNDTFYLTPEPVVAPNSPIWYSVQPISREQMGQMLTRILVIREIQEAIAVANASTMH
UniProt Q9Y3E5: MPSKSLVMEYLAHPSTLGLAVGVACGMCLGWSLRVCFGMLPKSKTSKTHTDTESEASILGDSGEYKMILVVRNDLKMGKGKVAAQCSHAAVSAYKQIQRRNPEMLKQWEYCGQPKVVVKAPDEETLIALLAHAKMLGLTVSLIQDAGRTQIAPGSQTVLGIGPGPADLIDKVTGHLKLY
UniProt Q99460, whole entry, looked up: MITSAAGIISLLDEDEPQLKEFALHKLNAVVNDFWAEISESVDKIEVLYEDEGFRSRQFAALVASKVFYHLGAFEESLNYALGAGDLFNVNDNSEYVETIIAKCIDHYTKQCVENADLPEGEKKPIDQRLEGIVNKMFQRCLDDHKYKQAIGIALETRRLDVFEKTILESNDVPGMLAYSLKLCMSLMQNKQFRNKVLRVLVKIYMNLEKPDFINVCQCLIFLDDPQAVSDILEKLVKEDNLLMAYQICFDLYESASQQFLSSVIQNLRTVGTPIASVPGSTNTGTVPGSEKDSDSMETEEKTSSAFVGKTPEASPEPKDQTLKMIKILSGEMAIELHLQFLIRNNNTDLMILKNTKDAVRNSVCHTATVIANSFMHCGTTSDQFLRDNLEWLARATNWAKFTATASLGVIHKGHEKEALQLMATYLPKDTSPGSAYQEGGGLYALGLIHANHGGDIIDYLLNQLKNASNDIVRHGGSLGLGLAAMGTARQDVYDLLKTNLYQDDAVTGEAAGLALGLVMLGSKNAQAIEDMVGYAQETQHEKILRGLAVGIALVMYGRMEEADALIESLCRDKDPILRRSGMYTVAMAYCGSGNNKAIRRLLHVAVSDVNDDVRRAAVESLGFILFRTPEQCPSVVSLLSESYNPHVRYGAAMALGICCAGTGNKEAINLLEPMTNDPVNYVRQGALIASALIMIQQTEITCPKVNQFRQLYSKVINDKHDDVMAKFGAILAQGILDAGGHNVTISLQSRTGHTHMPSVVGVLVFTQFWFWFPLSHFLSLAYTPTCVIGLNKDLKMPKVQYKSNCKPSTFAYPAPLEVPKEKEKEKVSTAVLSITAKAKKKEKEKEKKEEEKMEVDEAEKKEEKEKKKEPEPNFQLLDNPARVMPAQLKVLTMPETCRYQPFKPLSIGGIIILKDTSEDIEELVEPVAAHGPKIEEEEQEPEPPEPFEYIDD
UniProt Q12974: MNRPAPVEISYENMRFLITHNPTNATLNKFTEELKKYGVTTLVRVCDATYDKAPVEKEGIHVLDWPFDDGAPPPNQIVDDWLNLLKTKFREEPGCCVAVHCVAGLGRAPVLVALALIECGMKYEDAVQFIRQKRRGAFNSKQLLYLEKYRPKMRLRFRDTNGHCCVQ
UniProt P28072: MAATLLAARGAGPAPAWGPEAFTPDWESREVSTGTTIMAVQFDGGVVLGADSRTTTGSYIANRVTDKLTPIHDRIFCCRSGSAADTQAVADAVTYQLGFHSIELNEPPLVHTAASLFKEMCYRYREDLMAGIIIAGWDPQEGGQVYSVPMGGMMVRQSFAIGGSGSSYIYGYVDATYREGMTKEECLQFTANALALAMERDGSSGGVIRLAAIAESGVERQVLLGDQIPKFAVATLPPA
UniProt Q9BRQ0: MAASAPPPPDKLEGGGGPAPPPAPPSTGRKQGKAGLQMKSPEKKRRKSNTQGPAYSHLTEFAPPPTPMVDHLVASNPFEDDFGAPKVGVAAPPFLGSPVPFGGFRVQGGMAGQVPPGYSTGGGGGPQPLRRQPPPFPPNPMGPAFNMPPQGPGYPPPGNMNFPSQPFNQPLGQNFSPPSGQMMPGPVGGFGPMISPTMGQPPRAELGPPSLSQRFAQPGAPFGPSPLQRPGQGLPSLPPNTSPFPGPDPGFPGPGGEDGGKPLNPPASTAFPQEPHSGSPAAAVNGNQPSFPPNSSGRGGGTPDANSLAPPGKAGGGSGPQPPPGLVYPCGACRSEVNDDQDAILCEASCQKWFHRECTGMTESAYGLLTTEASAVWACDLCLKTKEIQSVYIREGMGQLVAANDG
UniProt Q93096: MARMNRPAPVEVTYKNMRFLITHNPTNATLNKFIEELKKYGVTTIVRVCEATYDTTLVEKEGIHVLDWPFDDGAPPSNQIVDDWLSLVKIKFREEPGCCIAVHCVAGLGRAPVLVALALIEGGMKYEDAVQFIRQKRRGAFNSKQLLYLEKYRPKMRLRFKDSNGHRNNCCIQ
UniProt P25788: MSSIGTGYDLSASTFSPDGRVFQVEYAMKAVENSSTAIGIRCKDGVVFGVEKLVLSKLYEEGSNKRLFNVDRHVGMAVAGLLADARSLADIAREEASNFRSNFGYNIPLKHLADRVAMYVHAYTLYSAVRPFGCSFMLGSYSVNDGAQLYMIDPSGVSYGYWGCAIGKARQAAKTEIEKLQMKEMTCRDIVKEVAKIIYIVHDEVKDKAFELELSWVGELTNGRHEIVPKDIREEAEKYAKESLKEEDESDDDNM
UniProt P62195, whole entry, looked up: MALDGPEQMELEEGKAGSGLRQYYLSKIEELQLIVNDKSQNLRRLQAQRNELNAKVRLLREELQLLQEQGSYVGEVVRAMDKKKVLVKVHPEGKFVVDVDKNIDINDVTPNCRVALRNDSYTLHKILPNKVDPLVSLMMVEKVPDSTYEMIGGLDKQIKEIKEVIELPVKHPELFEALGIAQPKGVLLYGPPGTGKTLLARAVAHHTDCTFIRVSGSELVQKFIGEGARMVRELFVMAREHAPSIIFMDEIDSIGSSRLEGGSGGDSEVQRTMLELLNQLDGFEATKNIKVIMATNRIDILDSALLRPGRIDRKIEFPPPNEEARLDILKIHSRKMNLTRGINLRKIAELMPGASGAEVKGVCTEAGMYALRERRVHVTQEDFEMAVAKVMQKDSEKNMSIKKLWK
UniProt Q8WU10: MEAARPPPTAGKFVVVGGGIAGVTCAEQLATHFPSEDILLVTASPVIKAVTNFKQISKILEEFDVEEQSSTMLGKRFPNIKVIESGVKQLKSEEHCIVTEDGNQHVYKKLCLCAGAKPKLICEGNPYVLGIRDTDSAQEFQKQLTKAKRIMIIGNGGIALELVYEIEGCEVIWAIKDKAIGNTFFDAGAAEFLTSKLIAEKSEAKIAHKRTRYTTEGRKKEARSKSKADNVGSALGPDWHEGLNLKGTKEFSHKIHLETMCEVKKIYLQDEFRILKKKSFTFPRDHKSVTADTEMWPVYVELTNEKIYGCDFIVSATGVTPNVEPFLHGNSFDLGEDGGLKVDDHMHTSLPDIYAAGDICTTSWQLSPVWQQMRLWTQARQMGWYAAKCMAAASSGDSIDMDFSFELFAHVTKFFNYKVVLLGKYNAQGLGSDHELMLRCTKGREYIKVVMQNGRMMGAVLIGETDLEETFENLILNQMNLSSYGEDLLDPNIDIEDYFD

filanesib = compound: CON(C)C(=O)N1N=C(c2cc(F)ccc2F)S[C@@]1(CCCN)c1ccccc1 [filanesib]
In short: as §1

zotarolimus = compound: CO[C@H]1C[C@@H]2CC[C@@H](C)[C@@](O)(O2)C(=O)C(=O)N2CCCC[C@H]2C(=O)O[C@H]([C@H](C)C[C@@H]2CC[C@H](n3cnnn3)[C@H](OC)C2)CC(=O)[C@H](C)/C=C(\C)[C@@H](O)[C@@H](OC)C(=O)[C@H](C)C[C@H](C)/C=C/C=C/C=C/1C [zotarolimus]
In short: as §1

idasanutlin = compound: COc1cc(C(=O)O)ccc1NC(=O)[C@@H]1N[C@@H](CC(C)(C)C)[C@](C#N)(c2ccc(Cl)cc2F)[C@H]1c1cccc(Cl)c1F [idasanutlin]
In short: as §1

alisertib = compound: COc1cc(Nc2ncc3c(n2)-c2ccc(Cl)cc2C(c2c(F)cccc2OC)=NC3)ccc1C(=O)O [alisertib]
In short: as §1

[2] = compound: COc1cc2nc(-c3cc(F)ccc3O)nc(N[C@@H]3CNC[C@H]3C(C)(C)O)c2cc1OC
In short: as §1

gefitinib = compound: COc1cc2ncnc(Nc3ccc(F)c(Cl)c3)c2cc1OCCCN1CCOCC1 [gefitinib]
In short: as §1

[3] = compound: COc1cccc2cc(-c3nc([C@H]4CC[C@H](C(=O)O)CC4)n4ncnc(N)c34)[nH]c12
In short: as §1

lapatinib = compound: CS(=O)(=O)CCNCc1ccc(-c2ccc3ncnc(Nc4ccc(OCc5cccc(F)c5)c(Cl)c4)c3c2)o1 [lapatinib]
In short: as §1

pictilisib = compound: CS(=O)(=O)N1CCN(Cc2cc3nc(-c4cccc5[nH]ncc45)nc(N4CCOCC4)c3s2)CC1 [pictilisib]
In short: as §1

[4] = compound: CS(=O)(=O)c1ccc(-c2cnc(N)c(C(=O)Nc3ccccc3)n2)cc1
In short: as §1

crizotinib = compound: C[C@@H](Oc1cc(-c2cnn(C3CCNCC3)c2)cnc1N)c1c(Cl)ccc(F)c1Cl [crizotinib]
In short: as §1

[5] = compound: C[C@@H]1COCCN1C2=NC(=NC(=C2)C3(CC3)S(=O)(=O)C)C4=C5C=CNC5=CC=C4
In short: as §1

[6] = compound: C[C@H](C1=CC=C(C=C1)C(=O)NC2=C3C=CNC3=NC=C2)N
In short: as §1

gandotinib = compound: Cc1cc(Nc2cc(CN3CCOCC3)c3nc(C)c(Cc4ccc(Cl)cc4F)n3n2)n[nH]1 [gandotinib]
In short: as §1

[7] = compound: Cc1cc(SCc2sc(-c3ccc(C(F)(F)F)cc3)nc2C)ccc1OCC(=O)O
In short: as §1

doramapimod = compound: Cc1ccc(-n2nc(C(C)(C)C)cc2NC(=O)Nc2ccc(OCCN3CCOCC3)c3ccccc23)cc1 [doramapimod]
In short: as §1

ispinesib = compound: Cc1ccc(C(=O)N(CCCN)[C@@H](c2nc3cc(Cl)ccc3c(=O)n2Cc2ccccc2)C(C)C)cc1 [ispinesib]
In short: as §1

tozasertib = compound: Cc1cc(Nc2cc(N3CCN(C)CC3)nc(Sc3ccc(NC(=O)C4CC4)cc3)n2)n[nH]1 [tozasertib]
In short: as §1

duvelisib = compound: C[C@H](Nc1ncnc2nc[nH]c12)c1cc2cccc(Cl)c2c(=O)n1-c1ccccc1 [duvelisib]
In short: as §1

Measured: log2 fold change

PSPC1 (UniProt Q8WXF1)
inactive: [1] 0.008 | filanesib 0.048 | zotarolimus 0.026 | idasanutlin 0.03 | alisertib -0.084 | [2] -0.146 | gefitinib 0.061 | [3] -0.042 | lapatinib 0.152 | pictilisib -0.081 | [4] -0.068 | crizotinib 0.076 | [5] -0.044 | [6] 0.088 | gandotinib -0.09 | [7] 0.04 | doramapimod -0.028 | ispinesib -0.217

PSMA7 isoform 2 (UniProt O14818)
inactive: [1] -0.519 | filanesib 0.295 | zotarolimus -0.182 | idasanutlin 0.086 | alisertib -0.113 | [2] 0.367 | gefitinib -0.032 | [3] 0.106 | lapatinib -0.347 | [4] 0.13 | crizotinib 0.208 | [5] -0.056 | [6] 0.291 | tozasertib -0.085 | doramapimod 0

PTPRN2 isoform 3 (UniProt Q92932)
inactive: [1] -0.355 | filanesib 0.109 | zotarolimus -0.42 | idasanutlin 0.093 | alisertib 1.22 | gefitinib 0.036 | [3] 0.037 | [4] 0.153 | crizotinib 0.331 | [5] 0.062 | [6] 0.823 | duvelisib 0.111 | [7] -0.068 | doramapimod -0.065

PSME4 (UniProt Q14997)
inactive: [1] -0.023 | filanesib -0.091 | zotarolimus 0.005 | idasanutlin -0.123 | alisertib -0.045 | [2] -0.03 | gefitinib -0.071 | [3] 0.037 | lapatinib 0.044 | pictilisib -0.045 | [4] 0.036 | crizotinib -0.161 | [5] 0.013 | [6] 0.052 | gandotinib -0.082 | [7] 0.093 | doramapimod 0.045 | ispinesib -0.09

QRICH1 (UniProt Q2TAL8)
inactive: [1] 0.015 | filanesib 0.004 | zotarolimus -0.022 | idasanutlin -0.072 | alisertib 0.071 | [2] 0.08 | gefitinib 0.137 | [3] 0.032 | lapatinib 0.011 | [4] -0.01 | crizotinib -0.2 | [5] 0.07 | [6] 0.016 | [7] 0.014 | doramapimod -0.077 | ispinesib 0.006

PTRH2 (UniProt Q9Y3E5)
inactive: filanesib -0.033 | zotarolimus 0.01 | idasanutlin -0.076 | alisertib -0.009 | [2] 0.07 | gefitinib 0.015 | [3] 0.001 | lapatinib 0.012 | pictilisib -0.005 | [4] 0.02 | crizotinib 0.081 | [5] 0.061 | [6] -0.098 | gandotinib -0.02 | [7] -0.001 | doramapimod -0.074 | ispinesib 0.181
active: [1] 0.403

PSMD1 (UniProt Q99460)
inactive: [1] 0.009 | filanesib -0.002 | zotarolimus 0.011 | idasanutlin -0.005 | alisertib -0.126 | [2] -0.077 | gefitinib -0.046 | [3] -0.056 | lapatinib 0.069 | pictilisib -0.052 | [4] -0.009 | crizotinib -0.002 | [5] -0.075 | [6] 0.047 | gandotinib 0 | [7] 0.017 | doramapimod 0.036 | ispinesib 0.048

PTP4A2 (UniProt Q12974)
inactive: [1] 0.078 | filanesib -0.062 | zotarolimus -0.022 | idasanutlin -0.079 | alisertib -0.055 | [2] 0.033 | gefitinib -0.007 | [3] -0.11 | lapatinib -0.078 | [4] -0.001 | crizotinib 0.047 | [5] 0.026 | [6] -0.01 | [7] 0.05 | doramapimod -0.047 | ispinesib 0.154

PSMB9 (UniProt P28065)
inactive: [1] 0.25 | filanesib 0.189 | zotarolimus -0.08 | idasanutlin -0.028 | [2] 0.246 | lapatinib -0.064 | pictilisib -0.006 | [4] 0.259 | crizotinib 0 | [5] 0.075 | [6] 0.066 | gandotinib 0.126 | doramapimod 0.084

PSMB6 (UniProt P28072)
active: gandotinib 0.444
inactive: [1] -0.055 | filanesib 0.075 | zotarolimus -0.018 | idasanutlin 0.044 | alisertib -0.062 | [2] -0.014 | gefitinib -0.027 | [3] 0.018 | lapatinib 0.035 | pictilisib -0.017 | [4] 0.01 | crizotinib 0.096 | [5] 0.003 | [6] 0.059 | [7] -0.029 | doramapimod 0.049 | ispinesib -0.037

PYGO2 (UniProt Q9BRQ0)
inactive: [1] 0.093 | filanesib -0.019 | alisertib -0.205 | [2] 0.052 | gefitinib -0.037 | [3] 0.022 | lapatinib -0.164 | pictilisib -0.117 | [4] 0.303 | crizotinib 0.077 | [5] -0.122 | gandotinib 0.082 | doramapimod 0.013 | ispinesib -0.118

PTP4A1 (UniProt Q93096)
active: [2] -0.267
inactive: [1] 0.009 | filanesib -0.088 | zotarolimus 0.05 | idasanutlin 0.089 | alisertib -0.129 | gefitinib 0.033 | [3] 0.04 | lapatinib 0.024 | pictilisib 0.068 | [4] 0.04 | crizotinib 0.036 | [5] -0.006 | [6] -0.094 | gandotinib -0.116 | [7] -0.039 | doramapimod -0.037 | ispinesib 0.039

PSMA3 (UniProt P25788)
inactive: [1] 0.015 | filanesib 0.034 | zotarolimus 0.044 | idasanutlin 0.019 | alisertib -0.04 | [2] -0.079 | gefitinib -0.025 | [3] -0.003 | lapatinib 0.062 | pictilisib -0.053 | [4] 0.011 | crizotinib 0.052 | [5] -0.012 | [6] -0.117 | gandotinib 0.054 | [7] 0.007 | doramapimod 0.018 | ispinesib -0.002

PSMC5 (UniProt P62195)
inactive: [1] -0.024 | filanesib 0.037 | zotarolimus -0.018 | idasanutlin 0 | alisertib -0.019 | [2] -0.053 | gefitinib -0.025 | [3] -0.031 | lapatinib 0.052 | pictilisib -0.05 | [4] 0.025 | crizotinib 0.001 | [5] -0.07 | [6] 0.057 | gandotinib 0.017 | [7] 0.036 | doramapimod 0.028 | ispinesib -0.007

PYROXD1 (UniProt Q8WU10)
inactive: [1] -0.11 | filanesib 0.288 | zotarolimus -0.342 | idasanutlin -0.039 | alisertib 0.101 | [2] -0.056 | gefitinib -0.143 | [3] 0.139 | lapatinib 0.15 | [4] -0.134 | crizotinib -0.086 | [5] 0.123 | [6] -0.057 | duvelisib 0.044 | tozasertib 0.029 | [7] 0.021 | doramapimod 0.024 | ispinesib 0.044

PSMC6 (UniProt P62333)
inactive: [1] -0.059 | filanesib 0.083 | zotarolimus -0.003 | idasanutlin 0.005 | alisertib -0.093 | [2] -0.024 | gefitinib -0.038 | [3] -0.057 | lapatinib 0.049 | pictilisib -0.054 | [4] 0.032 | crizotinib 0.022 | [5] -0.047 | [6] 0.116 | gandotinib 0.054 | [7] -0.002 | doramapimod 0.021 | ispinesib 0.007

PSMA3 (UniProt G3V4X5)
inactive: [1] -0.122 | [2] 0.255 | lapatinib -0.18 | crizotinib -0.277 | doramapimod 0.149 | ispinesib -0.081

Random excerpt: two records from the list, in no set order.
PTP4A1 (UniProt Q93096)
active: [2] -0.267
inactive: [1] 0.009 | filanesib -0.088 | zotarolimus 0.05 | idasanutlin 0.089 | alisertib -0.129 | gefitinib 0.033 | [3] 0.04 | lapatinib 0.024 | pictilisib 0.068 | [4] 0.04 | crizotinib 0.036 | [5] -0.006 | [6] -0.094 | gandotinib -0.116 | [7] -0.039 | doramapimod -0.037 | ispinesib 0.039

PTRH2 (UniProt Q9Y3E5)
inactive: filanesib -0.033 | zotarolimus 0.01 | idasanutlin -0.076 | alisertib -0.009 | [2] 0.07 | gefitinib 0.015 | [3] 0.001 | lapatinib 0.012 | pictilisib -0.005 | [4] 0.02 | crizotinib 0.081 | [5] 0.061 | [6] -0.098 | gandotinib -0.02 | [7] -0.001 | doramapimod -0.074 | ispinesib 0.181
active: [1] 0.403

Reference: the supplement of paper PMC10849652
